Test results published in PubChem BioAssay AID504467 (National Center for Advancing Translational Sciences (NCATS), 2011).
About 7,700 (2.3%) of roughly 330,000 compounds were called active. The inconclusive results got no clear call from the source; some entries with a clear call stand among them for comparison. The call rests on the fitted dose curve; in most records, active means well fitted inhibition curve with a large enough effect; inconclusive means small, poorly fitted or top-dose-only effect, or effect the other way; inactive means flat fitted curve, though single readings scatter. Potencies beside an inconclusive call are fits to weak or partial responses and may not hold up.

Assay: qHTS screen for small molecules that inhibit ELG1-dependent DNA repair in human embryonic kidney (HEK293T) cells expressing luciferase-tagged ELG1; further: nearly all actives have a fitted effect of over 55% in size
Details: HEK293T ELG1-luciferase reporter, luminescence, 16 h, DNA damage induced by 5-fluorouridine; activity change, negative = inhibition: at 46.1 µM (top of the series)
Outline: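 DMSO vehicle served as the neutral condition. Each well held 2,000 cells given 5-fluorouridine plus compound; after 16 hr at 37 °C/5% CO2, ONE-Glo was added and luciferase measured 30 min later.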
On the % scale 0 is the no-effect control and ±100 the full control effect; potency means the concentration at half of the fitted maximal effect.

| Compound | Potency | activity change, negative = inhibition |
| --- | --- | --- |
| Cc1cc(C)c2nc(NNC(=O)c3cc(-c4cccs4)nc4ccccc34)sc2c1 | inconclusive: 23.1 µM [inhibitor, single point] |  |
| CCOc1ccc(C(=O)NCC(=O)OCC(=O)c2ccc3c(c2)-c2ccccc2C3)cc1 | inconclusive: 14.6 µM [activator, single point] |  |
| CCOC(=O)c1sc2ccccc2c1OC(=O)c1ccccc1 | inconclusive: 20.6 µM [inhibitor, single point] |  |
| COc1ccc(-c2nc3cc(C)ccn3c2NC(=O)c2ccccc2OC)cc1 |  | inactive: -8.25% |
| COC(=O)CC1C(=O)NCCN1C(=O)CSc1nnc(Nc2ccc(OC)cc2)s1 (stereo not given) |  | inactive: 5.05% |
| Cc1ccc(NC(=O)Cn2nnc(C(=O)NCc3ccco3)c2N)c(C)c1 | inconclusive: 23.1 µM [activator, partial curve, poor fit] |  |
| Cc1ccccc1C(=O)N1CCN(c2ccc(NC(=O)c3cccc(OC(C)C)c3)cc2)CC1 | active: 16.4 µM |  |
| CN1CCN(CC(=O)N(C)c2nc(-c3ccccc3)cs2)CC1 | inconclusive: 10 µM [activator, partial curve] |  |
| Cc1cc(/C=C(\C#N)C(=O)N2CCOCC2)c(C)n1C1CCCC1 | inconclusive: 0.92 µM [activator, partial curve] |  |
| COc1ccc(-n2cnc3ccccc3c2=O)c([N+](=O)[O-])c1 |  | inactive: -12.2% |
| O=C(NC(=S)Nc1ccc(Cl)cn1)C(c1ccccc1)c1ccccc1 | inconclusive: 2.91 µM [inhibitor, single point] |  |
| O=C(O)c1cc(-n2[nH]c(=O)c3ccccc3c2=O)ccc1Cl | inconclusive: 29.1 µM [activator, single point] |  |
| O=C1c2ccccc2NC(c2ccccc2)N1/N=C/c1ccccc1 (stereo not given) | inconclusive: 7.08 µM [activator, partial curve, poor fit] |  |
| CC(=O)Nc1ccc(OCC(=O)N2CCC(Cc3ccccc3)CC2)cc1 | inconclusive: 18.3 µM [inhibitor, single point] |  |
| COCC1CCN(C(=O)C2CCC(=O)N(CCc3cccc(F)c3)C2)CC1 (stereo not given) |  | inactive: -10.1% |
| COC(=O)c1c(NC(NC(=O)C(C)C)C(Cl)(Cl)Cl)sc2c1CCCC2 (stereo not given) | inconclusive: 32.6 µM [inhibitor, partial curve, poor fit] |  |
| Cc1cc(C(=O)Nc2ccccn2)cs1 | inconclusive: 2.06 µM [activator, full curve] |  |
| Cc1ccc(CNC(=O)Cn2ncn3cccc3c2=O)cc1 | inconclusive: 14.6 µM [activator, partial curve] |  |
| O=C1CSC(c2cn(-c3ccccc3)nc2-c2cc3ccccc3o2)N1Cc1ccccc1 (stereo not given) | inconclusive: 8.2 µM [inhibitor, partial curve] |  |
| CCCOc1ccc(C(=O)C(CN2CCOCC2)c2ccccc2)cc1 (stereo not given) | inconclusive: 29.1 µM [inhibitor, single point] |  |
| COc1ccc(-c2cc(C(F)F)n3ncc(C(=O)Nc4cccc(S(=O)(=O)N5CCOCC5)c4)c3n2)cc1 | active: 3.66 µM |  |
| COc1ccccc1N(C(=O)c1ccncc1)c1nc(-c2ccc([N+](=O)[O-])cc2)cs1 | inconclusive: 23.1 µM [inhibitor, single point] |  |
| Cc1ccc(C(=O)OCC(=O)NCc2cccc(Cl)c2)cc1S(=O)(=O)N1CCCCC1 | inconclusive: 16.4 µM [inhibitor, single point] |  |

Three compounds from above, ordered by formula weight, smallest number first:

| Compound | Potency | activity change, negative = inhibition |
| --- | --- | --- |
| CCCOc1ccc(C(=O)C(CN2CCOCC2)c2ccccc2)cc1 (stereo not given) | inconclusive: 29.1 µM [inhibitor, single point] |  |
| Cc1ccc(NC(=O)Cn2nnc(C(=O)NCc3ccco3)c2N)c(C)c1 | inconclusive: 23.1 µM [activator, partial curve, poor fit] |  |
| Cc1ccccc1C(=O)N1CCN(c2ccc(NC(=O)c3cccc(OC(C)C)c3)cc2)CC1 | active: 16.4 µM |  |

Remaining list, next part:

| Compound | Potency | activity change, negative = inhibition |
| --- | --- | --- |
| Nc1[nH]n(-c2ccccc2)c(=O)c1N=Nc1ccc2ncsc2c1 | inconclusive: 29.1 µM [inhibitor, single point] |  |
| CCn1c(-c2ccc3[nH]c(C)c(C)c3c2)n[nH]c1=S |  | inactive: 11.4% |
| N#C/C(=C/c1ccc(CNC(=O)C(=O)Nc2cc(Cl)cc(Cl)c2)o1)C(=O)NCc1cccnc1 |  | inactive: 1.6% |
| CCN(CC(=O)NCCCn1ccnc1)S(=O)(=O)c1ccc(C)cc1 |  | inactive: 0.738% |
| O=C1CN(C(=O)CSc2nc3cc(Cl)ccc3c(=O)n2Cc2ccccc2)c2ccccc2N1 | inconclusive: 20.6 µM [inhibitor, single point] |  |
| COc1cccc(-n2nnc3c(=O)n(CC(=O)Nc4ccccc4C)cnc32)c1 | inconclusive: 23.1 µM [activator, single point] |  |
| Cc1ccc(OCCCC(=O)Nc2ccc(Cl)c(S(=O)(=O)N3CCOCC3)c2)cc1 | active: 23.1 µM |  |
| CC1CCN(CC(O)COCCOc2ccc(Br)cc2)CC1 (stereo not given) |  | inactive: -1.93% |
| COc1cccc(OC)c1C(=O)Nc1ccc2c(c1)CCCN2S(=O)(=O)c1ccc(C)cc1 |  | inactive: 0% |
| O=c1[nH]c2cc(Cl)ccc2n1-c1ccccc1 |  | inactive: -3.7% |
| O=[N+]([O-])c1ccc(-c2cnc(SC(c3ccccc3)c3ccccc3)[nH]2)cc1 | inconclusive: 29.1 µM [inhibitor, single point] |  |
| CCOCC(=O)Nc1nnc(COc2ccc(Cl)cc2)s1 |  | inactive: 0.293% |
| COC(=O)c1ccccc1OCCCOc1ccc(C=O)cc1OC | inconclusive: 6.51 µM [activator, partial curve] |  |
| COc1ccc(N=C2C(=Nc3ccc(OC)cc3)N(c3ccc(OC)cc3)C(=S)N2C(=O)c2ccc(OC)cc2)cc1 | inconclusive: 29.1 µM [activator, single point] |  |
| COc1ccccc1NC(=O)CN1CCC(n2nnc3cc(F)ccc32)CC1 | active: 20.6 µM |  |
| CN(C)c1ccc(/C=C/c2cccc[n+]2[O-])cc1 | inconclusive: 18.3 µM [activator, partial curve] |  |
| O=C(NCCc1ccc(Cl)cc1)C1COc2ccccc2O1 (stereo not given) |  | inactive: 6.08% |
| O=C(CCS(=O)(=O)c1cccs1)N1CCN(c2ccc(F)cc2)CC1 | inconclusive: 20.6 µM [activator, partial curve] |  |
| Cc1ccc([N+](=O)[O-])cc1N/C=C1\CCc2ccccc2C1=O | inconclusive: 6.31 µM [activator, full curve] |  |
| CCOc1ccc(NC(=O)c2ccc(NC(=O)Cc3n[nH]c(=O)c4ccccc34)cc2)cc1 | inconclusive: 6.51 µM [activator, single point] |  |
| COC(=O)c1ccc(NC2(C#N)C(=O)Nc3ccccc32)cc1 (stereo not given) |  | inactive: 0.172% |
| COc1ccc(-c2ccc([C@H]3[C@@H]4C=CCC[C@@]4(C)C(=O)N3Cc3ccccc3)c(F)c2)cc1 | inconclusive: 1.46 µM [inhibitor, partial curve, poor fit] |  |
